Some entries repeat one wording, which the source may state once for all of them.
Experiment: RBOT, standard ASTM D2272 (150 C.), bomb life
Format: physicochemical
Conditions: antioxidant with Triadine 3; baseline 0.5% Triadine-3
Excerpt: The antioxidants used in this study were received from internal and external commercial sources without alteration. The sample of butylated DPA was from a preparation of Naugalube 640 in which the sample was enriched in butylated DPA.
The ASTM D2272 method was run according to the standard procedure using a 10/90 (oil/water) emulsion as a test sample.

Compound | synergy with biocide / benefit over baseline in ASTM D2272 testing
3,5-di-t-butyl-4-hydroxy-hydrocinnamic acid C7-C9 branched alkyl ester [Naugalube 531] | no significant benefit over the baseline
CC(C)(C)c1cc(CCC(=O)OCCSCCOC(=O)CCc2cc(C(C)(C)C)c(O)c(C(C)(C)C)c2)cc(C(C)(C)C)c1O [AX 15, Thiodiethylene-bis(3,5-di-t-butyl-4-hydroxyhydrocinnamate)] | no significant benefit over the baseline
Cc1cc(C(C)(C)C)c(O)c(C(C)(C)C)c1 [BHT, 2,6-di-t-butyl hydroxytoluene] | no significant benefit over the baseline
butylated octylated diphenylamine [Naugalube 640] | large improvement in performance
butylated octylated diphenylamine [butylated DPA] | large synergy
mono-, di-, and tri-, nonylated diphenylamine [Naugalube 438L] | large improvement in performance
octylated phenyl-α-naphthylamine [Naugalube APAN] | no significant benefit over the baseline

Reference: US7569526B2, “Anti-oxidants in soluble oil base for metal working fluids” (Crompton Corporation, priority 2003, dated 2009)
